Data published in paper doi:10.1101/2022.12.20.521243.

Target: T1, XAP5 … …, epitope-tagged (XCT-YFP-HA) (Arabidopsis thaliana) (UniProt Q8H110)
T1 sequence: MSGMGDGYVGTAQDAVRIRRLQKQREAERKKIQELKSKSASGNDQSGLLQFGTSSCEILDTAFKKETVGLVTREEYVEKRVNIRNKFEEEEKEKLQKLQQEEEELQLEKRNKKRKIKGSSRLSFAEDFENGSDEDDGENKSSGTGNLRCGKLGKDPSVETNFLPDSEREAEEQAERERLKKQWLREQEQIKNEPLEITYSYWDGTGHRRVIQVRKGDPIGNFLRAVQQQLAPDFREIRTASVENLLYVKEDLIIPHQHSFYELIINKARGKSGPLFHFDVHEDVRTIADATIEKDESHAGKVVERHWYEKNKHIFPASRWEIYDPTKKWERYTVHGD
Assay: affinity purification with mass spectrometry

Substance	binding
PRECURSOR RNA PROCESSING 19 (PRP19)	binds
PRP22	binds

These are yes or no findings as the source states them, for the method shown. Binding seen in cells or lysates may run through a third protein. A yes stands for co-enrichment or nearness to the bait. Other partners may have been found. Where a sequence is shown, tags or fusion partners need not be part of it.
